Assay results taken from US11040052B2, “Methods and pharmaceutical compositions for modulating autophagy in a subject in need thereof” (INSERM (INSTITUT NATIONAL DE LA SANTE ET DE LA RECHERCHE …, priority 2013, dated 2021).
For at least one compound, name, drawing or mass did not settle the structure.

Columns and labels:
[1] = test system: autophagy in mice tissues; experiment: Autophagy induction in tissues of fed mice (LC3 lipidation, p62, GFP-LC3 dots); format: in vivo; conditions: for autophagy in vivo (LC3 lipidation, p62, GFP-LC3): fed mice
Procedure: (§1) C57BL/6 mice (Charles River Laboratory, Lentilly, France) were bred and maintained according to both the FELASA and the Animal Experimental Ethics Committee Guidelines (Val de Marne, France). Mice were housed in a temperature-controlled environment with 12 h light/dark cycles and received food and water ad libitum. For HC-related experiments, mice were injected intraperitoneally with a single 100 mg/kg dose and 6 h later were sacrificed and tissues were immediately frozen in liquid nitrogen. For DCA- and DMKG-related experiments, mice were subjected to 24 h starvation and injected intraperitoneally each 8 h with a 100 mg/kg of either DCA or DMKG solution prepared in PBS. After 24 h of starvation, mice were sacrificed and tissues were immediately frozen in liquid nitrogen after extraction and homogenized two cycles for 20 s at 5,500 rpm using Precellys 24 tissue homogenator (Bertin Technologies, Montigny-le-Bretonneux, France) in a 20 mM Tris buffer (pH 7.4) containing 150 mM NaCl, 1% Triton X-100, 10 mM EDTA and Complete® protease inhibitor cocktail (Roche Applied Science). Tissue extracts were then centrifuged at 12,000 g at 4° C. and supernatants were collected. Protein concentration in the supernatants was evaluated by the bicinchoninic acid technique (BCA protein assay kit, Pierce Biotechnology, Rockford, Ill.). For hydroxycitrate-related weight-loss experiments, autophagy-deficient Atg4b^−/− mice were used. Atg4b^−/− mice have been previously described (Mariño et al., 2010). For HC-, spermidine-, and resveratrol-related experiments (tumour growth) mice were intraperitoneally injected with respectively 100 mg/kg, 50 mg/kg and 100 mg/kg doses at day 8 and day 9. At day 9, mice were intraperitoneally injected with 2 mg/kg single dose of Mitoxanthrone. For starvation related experiment (tumour growth) mice were treated as previously described (Fabrizio et. al., 2010).
To avoid post-mortem autophagy induction, dead mice were immediately perfused with 4% paraformaldehyde (w:v in PBS, pH 7.4). Tissues were then harvested and further fixed with the same solution for at least 4 h, followed by treatment with 15% sucrose (w:v in PBS) for 4 h and with 30% sucrose (w:v in PBS) overnight. Tissue samples were embedded in Tissue-Tek OCT compound (Sakura Finetechnical Co. Ltd., Tokyo, Japan) and stored at −70° C. […] In each organ, the number of GFP-LC3 dots was counted in five independent visual fields from at least five mice using a TCS SP2 confocal fluorescence microscope (Leica Microsystems GmbH).
Six weeks old female C57BL/6, Balb/c and nude athymic mice (Harlan Laboratory, Gannat, France) were bred and maintained according to both the FELASA and the Animal Experimental Inserm Ethics Committee Guidelines (project: 2012-69). […] Tumor size was measured every two days. […]

MCA205 tumor = experiment: Growth of transplantable tumors with chemotherapy; format: in vivo, mice; conditions: for tumor growth, combined with MTX, autophagy-deficient tumors: MCA205 cells with Atg5 or Atg7 shRNA; for tumor growth, combined with MTX: immunocompetent wild type mice, agent given before and with mitoxanthrone; for tumor growth, combined with MTX, immunodeficient mice: nu/nu (nude athymic) mice
Procedure: as §1
Six weeks old female C57BL/6, Balb/c and nude athymic mice (Harlan Laboratory, Gannat, France) were bred and maintained according to both the FELASA and the Animal Experimental Inserm Ethics Committee Guidelines (project: 2012-69). Mice were housed in a temperature-controlled environment with 12 h light/dark cycles and received food and water ad libitum. For tumor growth experiments, procedures adopted are described as follows: 3×10^5 tumor cells were subcutaneously inoculated; when tumors became palpable (day −1 before chemotherapy), mice were first intraperitoneally injected with 100 mg/kg Potassium Hydroxycitrate, 10 mg/kg Acetylsalicylic Acid, 30 mg/kg SB204990, 30 mg/kg c646, 5 mg/kg Rapamycin, 25 mg/kg Resveratrol, 50 mg/kg Spermidine. At day 0, mice were intraperitoneally injected with the abovementioned compounds and with 5.17 mg/Kg Mitoxanthrone or 5 mg/kg Oxaliplatin. Tumor size was measured every two days. For starvation experiments, mice underwent 48 hour fasting followed by intreperitoneal injection of chemotherapeutics. For autophagy induction study, 6 hours after CRMs administration, mice were sacrificed and tissues were snap-frozen in liquid nitrogen after extraction and homogenized two cycles for 20 s at 5,500 rpm using Precellys 24 tissue homogenator (Bertin Technologies, Montigny-le-Bretonneux, France) in a 20 mM Tris buffer (pH 7.4) containing 150 mM NaCl, 1% Triton X-100, 10 mM EDTA and Complete® protease inhibitor cocktail (Roche Applied Science, Penzberg, Germany). Tissue extracts were then centrifuged at 12,000 g at 4° C. and supernatants were collected. Protein concentration in the supernatants was evaluated by the bicinchoninic acid technique (BCA protein assay kit, Pierce Biotechnology, Rockford, US.

[2] = test system: CD4+CD25+Foxp3+ Tregs in tumor bed; experiment: Detection of tumor-infiltrated Tregs (flow cytometry); format: in vivo, mice; conditions: compared with MTX group
Procedure: Tumors were digested using Miltenyi Biotec tumor digestion kit according to manufacturer's protocol. Single cells were resuspended in RPMI 1640 and sequentially passed through 100 μm and 70 μM nylon cell strainers (BD Biosciences). Leukocytes were purified using Miltenyi Biotec magnetic beads conjugated to monoclonal anti-mouse CD45 (clone 30F11.1) according to the supplier's recommendations. Prior to staining of TIL populations for flow cytometry analysis, samples were incubated with LIVE/DEAD® Fixable Yellow Dead Cell dyes (Invitrogen) to discriminate viable cells from damaged cells. TILs were incubated with antibodies against CD16/CD32 before staining with fluorescent-labeled antibodies targeting T-cell surface markers. Then, cells were permeabilized and fixed with eBioscience Foxp3/Transcription Factor Staining Buffer Set and stained for intracellular Foxp3. Data were acquired using a MACSQuant flow cytometer (Miltenyi Biotec) and analyzed with FlowJo v. X PC software (Treestar, Oreg., USA). Tregs were defined as CD3+ CD4+ CD8− CD25+ Foxp3+ T-cell population.

[3] = chronic treatment; cited from earlier work

CC(=O)Oc1ccccc1C(=O)O [aspirin, acetylsalicylate]
autophagy in vivo (LC3 lipidation, p62, GFP-LC3) [1]: induced signs of autophagy in vivo
autophagy in vivo (LC3 lipidation, p62, GFP-LC3) ([1]; listed as Acetylsalycilic Acid): induces autophagy in mice tissues
AMPK, ACC and p70S6 kinase phosphorylation in mice heart ([1]; intraperitoneal 10 mg/kg, 1, 3 and 6 hours): increased AMPK phosphorylation (Thr142) and the consequent AMPK-dependent inhibitory phosphorylation of ACC (Ser79) AcetylCoA Carboxylase and reduces the phosphorylation of mTOR substrate p70S6 kinase (Thr389)
tumor growth, combined with MTX, autophagy-deficient tumors (MCA205 tumor): as well as on the capacity of tumor cells to mount an autophagic response
tumor growth, combined with MTX, autophagy-deficient tumors (MCA205 tumor; listed as Aspirin): relies on autophagy induction in the tumor
tumor growth, combined with oxaliplatin (MCA205 tumor; data not shown): improved the anticancer activity of MTX (FIG. 10F) and oxaliplatin
tumor growth, combined with MTX (MCA205 tumor): improved the anticancer activity of MTX
tumor growth, combined with MTX (MCA205 tumor; listed as Aspirin): ameliorates the cancer killing effect of chemotherapy in wild type
tumor growth, combined with MTX, immunodeficient mice (MCA205 tumor): depended on the active participation of the host's cellular immune system
tumor growth, combined with MTX, immunodeficient mice (MCA205 tumor; listed as Aspirin): but not in nude mice
Foxp3+ Tregs in tumor bed, combined with MTX [2]: caused a major depletion of regulatory T cells from the tumor bed
Foxp3+ Tregs in tumor bed, combined with MTX ([2]; listed as Aspirin): favors FOXP3+ Treg depletion in tumor bed
health and life spans of mice [3]: extends the health and life spans of mice
